In the supplement of paper PMC10849652:
This is one part of the list.

By UniProt entry, the sequences of proteins in these tests, tags left out. Where a name states a change or a piece, a line headed by the entry shows the natural chain unless it says otherwise.
UniProt O95900: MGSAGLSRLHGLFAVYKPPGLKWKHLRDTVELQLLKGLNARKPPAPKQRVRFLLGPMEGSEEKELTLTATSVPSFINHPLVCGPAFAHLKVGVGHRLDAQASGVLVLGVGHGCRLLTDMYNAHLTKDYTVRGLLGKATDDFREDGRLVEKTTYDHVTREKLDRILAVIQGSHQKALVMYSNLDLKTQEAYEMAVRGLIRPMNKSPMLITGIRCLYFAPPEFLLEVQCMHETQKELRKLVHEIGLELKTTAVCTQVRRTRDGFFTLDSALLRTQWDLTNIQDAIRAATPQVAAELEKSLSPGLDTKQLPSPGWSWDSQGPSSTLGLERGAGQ
UniProt Q12999: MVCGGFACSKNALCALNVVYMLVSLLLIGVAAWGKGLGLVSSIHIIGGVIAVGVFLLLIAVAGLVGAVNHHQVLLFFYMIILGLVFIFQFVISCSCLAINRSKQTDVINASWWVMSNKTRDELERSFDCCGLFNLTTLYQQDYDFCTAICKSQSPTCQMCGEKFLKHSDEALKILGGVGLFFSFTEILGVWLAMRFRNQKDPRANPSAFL
UniProt Q8TD43: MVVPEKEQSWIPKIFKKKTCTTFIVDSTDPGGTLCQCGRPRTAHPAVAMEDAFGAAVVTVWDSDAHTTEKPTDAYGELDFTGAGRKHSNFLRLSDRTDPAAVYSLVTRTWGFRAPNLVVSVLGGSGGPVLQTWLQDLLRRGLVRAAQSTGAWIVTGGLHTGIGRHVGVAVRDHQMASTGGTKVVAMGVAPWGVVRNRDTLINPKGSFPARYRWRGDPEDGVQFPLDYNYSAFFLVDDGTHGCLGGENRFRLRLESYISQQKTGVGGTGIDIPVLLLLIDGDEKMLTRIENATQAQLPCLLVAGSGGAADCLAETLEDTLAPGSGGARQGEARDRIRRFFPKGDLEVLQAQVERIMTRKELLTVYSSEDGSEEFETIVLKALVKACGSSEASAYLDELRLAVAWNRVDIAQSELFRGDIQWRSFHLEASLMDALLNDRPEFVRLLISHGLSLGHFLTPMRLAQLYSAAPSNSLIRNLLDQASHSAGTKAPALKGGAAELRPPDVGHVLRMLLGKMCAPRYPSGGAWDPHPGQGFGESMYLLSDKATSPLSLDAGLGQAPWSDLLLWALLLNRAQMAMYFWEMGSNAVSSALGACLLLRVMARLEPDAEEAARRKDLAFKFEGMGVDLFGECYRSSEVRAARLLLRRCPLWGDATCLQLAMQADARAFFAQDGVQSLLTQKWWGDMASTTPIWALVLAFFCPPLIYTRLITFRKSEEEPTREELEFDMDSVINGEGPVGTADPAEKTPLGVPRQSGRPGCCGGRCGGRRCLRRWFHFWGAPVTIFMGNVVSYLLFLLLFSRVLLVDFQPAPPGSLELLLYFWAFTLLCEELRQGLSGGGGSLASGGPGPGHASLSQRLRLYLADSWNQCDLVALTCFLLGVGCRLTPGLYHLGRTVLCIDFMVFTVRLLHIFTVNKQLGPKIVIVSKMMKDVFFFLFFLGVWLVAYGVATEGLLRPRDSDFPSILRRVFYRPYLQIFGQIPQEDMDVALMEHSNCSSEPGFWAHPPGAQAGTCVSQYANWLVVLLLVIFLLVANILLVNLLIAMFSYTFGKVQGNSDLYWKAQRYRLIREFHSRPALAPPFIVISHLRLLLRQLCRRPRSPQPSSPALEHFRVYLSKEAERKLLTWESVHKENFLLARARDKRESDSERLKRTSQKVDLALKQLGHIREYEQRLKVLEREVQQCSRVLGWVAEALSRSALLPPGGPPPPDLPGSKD
UniProt Q96AY4: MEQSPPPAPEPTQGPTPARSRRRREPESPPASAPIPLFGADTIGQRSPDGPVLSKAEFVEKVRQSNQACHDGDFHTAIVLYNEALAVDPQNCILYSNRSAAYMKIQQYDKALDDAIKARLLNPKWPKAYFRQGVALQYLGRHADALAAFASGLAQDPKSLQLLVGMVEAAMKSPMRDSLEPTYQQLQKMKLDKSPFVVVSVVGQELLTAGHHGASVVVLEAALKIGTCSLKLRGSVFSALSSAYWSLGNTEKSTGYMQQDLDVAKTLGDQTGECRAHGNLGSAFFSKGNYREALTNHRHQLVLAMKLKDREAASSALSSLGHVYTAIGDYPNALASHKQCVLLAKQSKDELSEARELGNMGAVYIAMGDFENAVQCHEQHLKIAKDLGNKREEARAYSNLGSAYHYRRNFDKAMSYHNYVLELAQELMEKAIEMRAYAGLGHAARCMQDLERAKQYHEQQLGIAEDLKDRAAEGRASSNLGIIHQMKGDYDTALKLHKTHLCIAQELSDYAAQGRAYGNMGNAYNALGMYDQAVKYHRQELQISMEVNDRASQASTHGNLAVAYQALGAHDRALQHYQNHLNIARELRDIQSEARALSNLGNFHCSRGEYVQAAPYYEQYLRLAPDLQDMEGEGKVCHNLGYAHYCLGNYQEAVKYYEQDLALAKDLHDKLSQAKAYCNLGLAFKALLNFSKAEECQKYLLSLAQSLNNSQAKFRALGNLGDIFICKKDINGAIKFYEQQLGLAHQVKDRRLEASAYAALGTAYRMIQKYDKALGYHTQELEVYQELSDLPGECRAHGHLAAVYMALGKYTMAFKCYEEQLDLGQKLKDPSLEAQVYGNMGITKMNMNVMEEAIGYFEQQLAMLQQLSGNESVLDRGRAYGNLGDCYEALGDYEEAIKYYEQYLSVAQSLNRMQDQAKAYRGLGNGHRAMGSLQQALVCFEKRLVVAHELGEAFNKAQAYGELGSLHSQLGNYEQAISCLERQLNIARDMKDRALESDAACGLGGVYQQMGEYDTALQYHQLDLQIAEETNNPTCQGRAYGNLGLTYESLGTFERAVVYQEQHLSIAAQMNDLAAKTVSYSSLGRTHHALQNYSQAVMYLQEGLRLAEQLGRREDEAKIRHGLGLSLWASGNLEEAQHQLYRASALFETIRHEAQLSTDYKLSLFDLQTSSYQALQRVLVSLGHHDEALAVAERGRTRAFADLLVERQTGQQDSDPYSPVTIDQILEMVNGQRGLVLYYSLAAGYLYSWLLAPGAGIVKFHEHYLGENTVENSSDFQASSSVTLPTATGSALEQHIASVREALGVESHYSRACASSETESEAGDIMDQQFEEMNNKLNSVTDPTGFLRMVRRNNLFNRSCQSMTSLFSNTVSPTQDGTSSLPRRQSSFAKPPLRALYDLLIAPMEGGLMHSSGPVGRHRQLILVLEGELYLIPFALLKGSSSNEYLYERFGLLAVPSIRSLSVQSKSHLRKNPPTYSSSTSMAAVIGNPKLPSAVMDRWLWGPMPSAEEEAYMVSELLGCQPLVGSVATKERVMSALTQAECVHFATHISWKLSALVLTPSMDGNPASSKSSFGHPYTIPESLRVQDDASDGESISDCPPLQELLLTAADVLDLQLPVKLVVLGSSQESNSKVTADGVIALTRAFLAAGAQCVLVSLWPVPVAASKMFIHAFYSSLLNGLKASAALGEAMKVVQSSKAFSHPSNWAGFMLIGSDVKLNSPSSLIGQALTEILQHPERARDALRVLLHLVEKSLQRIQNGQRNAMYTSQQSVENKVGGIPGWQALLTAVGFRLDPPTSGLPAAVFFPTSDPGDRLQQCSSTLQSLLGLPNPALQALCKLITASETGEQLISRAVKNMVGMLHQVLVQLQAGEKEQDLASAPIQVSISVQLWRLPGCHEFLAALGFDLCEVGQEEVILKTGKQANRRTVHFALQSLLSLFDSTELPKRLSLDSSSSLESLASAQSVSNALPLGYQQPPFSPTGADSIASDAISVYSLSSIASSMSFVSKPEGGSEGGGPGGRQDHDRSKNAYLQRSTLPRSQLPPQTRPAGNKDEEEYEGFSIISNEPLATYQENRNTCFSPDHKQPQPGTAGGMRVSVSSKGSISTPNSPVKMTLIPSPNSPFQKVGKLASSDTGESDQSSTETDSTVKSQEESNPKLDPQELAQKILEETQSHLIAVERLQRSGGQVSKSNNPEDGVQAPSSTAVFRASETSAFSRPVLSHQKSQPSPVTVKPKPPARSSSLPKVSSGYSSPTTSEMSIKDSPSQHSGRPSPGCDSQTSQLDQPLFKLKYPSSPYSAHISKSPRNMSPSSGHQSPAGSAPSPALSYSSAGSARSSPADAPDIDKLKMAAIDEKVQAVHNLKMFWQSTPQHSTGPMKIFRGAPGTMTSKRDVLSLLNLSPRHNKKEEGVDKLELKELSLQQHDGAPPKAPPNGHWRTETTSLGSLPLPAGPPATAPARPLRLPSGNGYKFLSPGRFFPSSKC
UniProt Q6Q0C0: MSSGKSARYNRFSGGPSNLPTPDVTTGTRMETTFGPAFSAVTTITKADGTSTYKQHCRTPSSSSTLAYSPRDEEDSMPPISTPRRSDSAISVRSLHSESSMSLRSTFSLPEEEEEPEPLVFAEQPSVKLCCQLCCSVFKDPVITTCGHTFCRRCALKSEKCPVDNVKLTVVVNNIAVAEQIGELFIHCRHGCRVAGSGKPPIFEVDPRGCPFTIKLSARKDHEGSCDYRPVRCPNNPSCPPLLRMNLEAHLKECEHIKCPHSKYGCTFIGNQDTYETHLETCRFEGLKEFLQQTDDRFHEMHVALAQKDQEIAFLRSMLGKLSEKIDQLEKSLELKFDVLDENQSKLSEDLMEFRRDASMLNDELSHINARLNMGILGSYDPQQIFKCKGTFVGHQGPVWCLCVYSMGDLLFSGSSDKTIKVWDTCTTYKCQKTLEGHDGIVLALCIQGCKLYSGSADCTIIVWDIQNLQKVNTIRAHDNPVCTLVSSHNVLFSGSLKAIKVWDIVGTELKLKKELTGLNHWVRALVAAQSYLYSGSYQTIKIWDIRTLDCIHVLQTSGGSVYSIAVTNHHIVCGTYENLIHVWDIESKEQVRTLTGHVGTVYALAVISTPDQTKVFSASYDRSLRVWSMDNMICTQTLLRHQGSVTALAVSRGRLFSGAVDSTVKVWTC
UniProt Q8NG06: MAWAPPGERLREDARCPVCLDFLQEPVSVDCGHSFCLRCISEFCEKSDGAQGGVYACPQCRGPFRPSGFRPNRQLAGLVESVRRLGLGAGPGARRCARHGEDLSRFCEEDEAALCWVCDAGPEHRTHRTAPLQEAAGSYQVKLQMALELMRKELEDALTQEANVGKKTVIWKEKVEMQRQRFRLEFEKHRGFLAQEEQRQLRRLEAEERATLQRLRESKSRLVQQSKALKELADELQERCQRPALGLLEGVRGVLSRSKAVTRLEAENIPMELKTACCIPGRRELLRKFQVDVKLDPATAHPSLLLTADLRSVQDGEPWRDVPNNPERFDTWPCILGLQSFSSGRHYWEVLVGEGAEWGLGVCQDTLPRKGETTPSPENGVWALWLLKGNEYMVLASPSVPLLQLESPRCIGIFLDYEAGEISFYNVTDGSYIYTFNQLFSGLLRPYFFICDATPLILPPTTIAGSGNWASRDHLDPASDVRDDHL
UniProt O14817: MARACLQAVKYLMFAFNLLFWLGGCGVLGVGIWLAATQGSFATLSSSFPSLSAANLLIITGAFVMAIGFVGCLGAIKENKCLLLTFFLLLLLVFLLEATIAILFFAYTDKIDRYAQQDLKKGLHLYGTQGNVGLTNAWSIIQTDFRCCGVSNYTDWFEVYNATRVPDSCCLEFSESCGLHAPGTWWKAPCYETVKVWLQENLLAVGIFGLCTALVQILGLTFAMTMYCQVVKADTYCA
UniProt O94972: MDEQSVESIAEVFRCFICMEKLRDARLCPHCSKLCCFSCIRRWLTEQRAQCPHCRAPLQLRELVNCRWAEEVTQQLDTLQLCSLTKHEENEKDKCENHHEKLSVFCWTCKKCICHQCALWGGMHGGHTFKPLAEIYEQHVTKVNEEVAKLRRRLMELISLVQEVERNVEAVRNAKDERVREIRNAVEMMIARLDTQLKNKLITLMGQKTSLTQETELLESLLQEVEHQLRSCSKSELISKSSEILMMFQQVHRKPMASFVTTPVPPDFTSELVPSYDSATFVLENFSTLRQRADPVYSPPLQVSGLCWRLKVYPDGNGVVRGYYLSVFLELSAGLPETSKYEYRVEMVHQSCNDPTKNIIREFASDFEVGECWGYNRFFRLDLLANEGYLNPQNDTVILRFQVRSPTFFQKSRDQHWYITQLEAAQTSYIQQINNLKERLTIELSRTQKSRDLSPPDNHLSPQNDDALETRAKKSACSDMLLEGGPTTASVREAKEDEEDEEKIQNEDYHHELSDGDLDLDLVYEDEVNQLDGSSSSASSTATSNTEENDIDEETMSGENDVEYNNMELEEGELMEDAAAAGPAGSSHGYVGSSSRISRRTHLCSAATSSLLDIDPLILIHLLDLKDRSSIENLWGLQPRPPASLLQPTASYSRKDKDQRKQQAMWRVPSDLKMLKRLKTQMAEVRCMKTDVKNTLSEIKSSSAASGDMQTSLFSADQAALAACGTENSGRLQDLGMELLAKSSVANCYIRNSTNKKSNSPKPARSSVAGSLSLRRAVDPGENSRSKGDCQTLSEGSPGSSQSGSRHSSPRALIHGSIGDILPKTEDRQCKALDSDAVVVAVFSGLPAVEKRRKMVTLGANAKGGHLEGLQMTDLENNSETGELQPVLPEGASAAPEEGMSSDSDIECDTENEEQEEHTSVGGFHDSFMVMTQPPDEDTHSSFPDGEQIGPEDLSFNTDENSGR

Assays:
Test in all cases: log2 fold change, soluble protein after heating vs DMSO (PISA); higher = thermal stabilisation; K562 lysate, 10 uM; active = over 0.2 and 3.5 SD of the protein, either way, in both replicates (recomputed)
[1] = compound: CS(=O)(=O)CCNCc1ccc(-c2ccc3ncnc(Nc4ccc(OCc5cccc(F)c5)c(Cl)c4)c3c2)o1 [lapatinib]
Outline: (§1)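 To prepare the extract, K562 pellets were dounce-homogenised in PBS pH 7.4 with 1 mM MgCl2, giving crude material at 1 mg/mL protein. This was treated with 10 μM compound for 30 min, then heated in aliquots for 3 min over 48°C-58°C before pooling and addition of NP-40 to 0.5% at 4°C. Centrifugation at 21,000xg for 90 min left soluble protein in the supernatant, which TMTpro 16plex LC-MS/MS quantified with equalised channel sums. Results are log-two fold changes in thermal stability compared with solvent controls, from duplicates.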

[2] = compound: C[C@@H](Oc1cc(-c2cnn(C3CCNCC3)c2)cnc1N)c1c(Cl)ccc(F)c1Cl [crizotinib]
Outline: as §1

[3] = compound: Cc1ccc(-n2nc(C(C)(C)C)cc2NC(=O)Nc2ccc(OCCN3CCOCC3)c3ccccc23)cc1 [doramapimod]
Outline: as §1

[4] = compound: C[C@H](C1=CC=C(C=C1)C(=O)NC2=C3C=CNC3=NC=C2)N
Outline: as §1

[5] = compound: Cc1cc(Nc2cc(CN3CCOCC3)c3nc(C)c(Cc4ccc(Cl)cc4F)n3n2)n[nH]1 [gandotinib]
Outline: as §1

[6] = compound: Cc1cccc(CC(=O)N2CCc3c2ccc(-c2cn(C)c4ncnc(N)c24)c3F)n1
Outline: as §1

[7] = compound: CS(=O)(=O)N1CCN(Cc2cc3nc(-c4cccc5[nH]ncc45)nc(N4CCOCC4)c3s2)CC1 [pictilisib]
Outline: as §1

[8] = compound: Cc1ccc(NC(=O)c2ccc(CN3CC[C@H](N(C)C)C3)c(C(F)(F)F)c2)cc1Nc1nccc(-c2cncnc2)n1 [bafetinib]
Outline: as §1

[9] = compound: C[C@H](Nc1ncnc2nc[nH]c12)c1cc2cccc(Cl)c2c(=O)n1-c1ccccc1 [duvelisib]
Outline: as §1

[10] = compound: Cc1cc(Nc2cc(N3CCN(C)CC3)nc(Sc3ccc(NC(=O)C4CC4)cc3)n2)n[nH]1 [tozasertib]
Outline: as §1

Measured: log2 fold change

TRAM2 (UniProt Q15035)
inactive: [1] -0.264 | [2] 0.01 | [3] -0.126

TTC17 isoform 2 (UniProt Q96AE7)
inactive: [4] -0.635 | [5] 0.033 | [6] 0.271

TRIM27 (UniProt P14373)
inactive: [7] 0.103 | [2] -0.039 | [4] 0.02 | [5] 0.014 | [3] 0.01 | [8] 0.001 | [6] 0.03

TTC3 (UniProt P53804)
inactive: [9] 0.097

TRIM67 (UniProt Q6ZTA4)
inactive: [1] -0.031 | [10] 0.071

TRIM16 (UniProt O95361)
inactive: [9] 0.08 | [10] 0.008

TRUB2 (UniProt O95900)
inactive: [4] -0.1 | [9] -0.066 | [5] -0.071 | [10] 0.116 | [6] 0

TTC30B (UniProt Q8N4P2)
inactive: [2] -0.024 | [4] 0.045 | [5] -0.15 | [10] -0.066 | [3] 0.003 | [6] 0.162

TRIM68 (UniProt Q6AZZ1)
inactive: [2] -0.322 | [10] 0.119 | [3] 0.289

TSEN15, A0A2U3TZM3
inactive: [1] 0.074 | [4] 0.159 | [9] -0.125 | [5] -0.23 | [6] 0.051

TSKS (UniProt Q9UJT2)
inactive: [2] -0.009 | [4] 0.237 | [9] -0.011 | [5] -0.223 | [10] 0.035 | [3] 0.019 | [6] 0.004

TSPAN31 (UniProt Q12999)
inactive: [2] 0.071 | [9] -0.114 | [3] -0.069

TTBK2 (UniProt Q6IQ55)
inactive: [2] -0.111 | [10] 0.091 | [3] 0.09

TSPYL2 (UniProt Q9H2G4)
inactive: [2] -0.144 | [4] 0.039 | [9] -0.041 | [5] -0.282 | [10] -0.008 | [3] 0.088 | [6] 0.228

TRIM3 (UniProt O75382)
inactive: [1] 0.009 | [10] -0.056

TRPM4 (UniProt Q8TD43)
inactive: [7] -0.085 | [2] 0.055 | [9] 0.042 | [5] 0.088 | [3] -0.111 | [8] -0.02 | [6] 0.25
active: [4] -0.654

TTC28 (UniProt Q96AY4)
inactive: [7] -0.324 | [2] -0.093 | [3] 0.096 | [8] 0.041

TTLL12 (UniProt V9GY16)
inactive: [7] 0.058 | [2] 0.072 | [4] -0.169 | [5] 0.188 | [10] -0.087 | [3] -0.029 | [8] -0.187 | [6] 0.263

TSPYL6 (UniProt Q8N831)
inactive: [9] 0.017

TRMO (UniProt Q9BU70)
inactive: [7] -0.18 | [2] -0.111 | [9] -0.112 | [10] -0.04 | [3] 0.05 | [8] -0.089

TRDMT1 (UniProt O14717)
inactive: [1] -0.22 | [2] -0.003 | [9] 0.152 | [10] -0.098 | [3] 0.028

TRIM26 (UniProt Q12899)
inactive: [1] 0.097 | [2] -0.28 | [3] 0.099

TRAF5 isoform 2 (UniProt O00463)
inactive: [10] -0.065

TRPS1 isoform 2 (UniProt Q9UHF7)
inactive: [1] 0.072 | [2] -0.306 | [4] -0.169 | [9] 0 | [5] -0.034 | [3] 0.055 | [6] 0.279

TRAPPC2L (UniProt H3BQQ8)
inactive: [7] 0.017 | [8] -0.058

TRAF7 (UniProt Q6Q0C0)
inactive: [2] -0.01 | [4] -0.241 | [9] -0.029 | [5] -0.128 | [10] 0.124 | [3] 0.122 | [6] 0.127

TRMT10B (UniProt Q6PF06)
inactive: [4] -0.117 | [5] -0.027 | [6] 0.12

TRIM58 (UniProt Q8NG06)
inactive: [7] -0.05 | [2] 0.036 | [4] -0.05 | [9] -0.034 | [5] -0.042 | [10] -0.043 | [3] 0.011 | [8] -0.021 | [6] 0.02

TRIM47 (UniProt Q96LD4)
inactive: [1] 0.114 | [4] -0.176 | [9] -0.048 | [5] -0.069 | [10] 0.008 | [6] 0

TRAF3IP2 (UniProt O43734)
inactive: [4] -0.107 | [5] -0.292 | [6] -0.359

TTF1 (UniProt Q15361)
inactive: [10] -0.136

TSPAN3 (UniProt O60637)
active: [4] 0.513
inactive: [1] -0.013 | [9] -0.058 | [5] -0.163 | [10] -0.01 | [6] -0.342

TSPAN4 (UniProt O14817)
inactive: [2] 0.013 | [10] -0.012 | [3] 0.012

TRIM37 (UniProt O94972)
inactive: [2] -0.007 | [9] -0.096 | [10] 0.105 | [3] -0.091

TRMT44 (UniProt Q8IYL2)
inactive: [2] -0.14 | [3] 0.016

TRIB3 (UniProt Q96RU7)
inactive: [9] 0.098 | [10] -0.137

TSC22D1 isoform 2 (UniProt Q15714)
inactive: [2] -0.021 | [10] -0.047 | [3] 0.027

TTC26
inactive: [4] -0.024 | [9] 0.055 | [5] -0.162 | [10] -0.006 | [6] 0.102

TTC21B (UniProt Q7Z4L5)
inactive: [7] -0.022 | [4] -0.084 | [9] 0.023 | [5] -0.034 | [10] -0.109 | [8] -0.034 | [6] 0.038

TSC22D3 isoform 3 (UniProt Q99576)
inactive: [2] 0.101 | [3] -0.065

3 successive entries already listed, quoted:
TRIM3 (UniProt O75382)
inactive: [1] 0.009 | [10] -0.056

TRPM4 (UniProt Q8TD43)
inactive: [7] -0.085 | [2] 0.055 | [9] 0.042 | [5] 0.088 | [3] -0.111 | [8] -0.02 | [6] 0.25
active: [4] -0.654

TTC28 (UniProt Q96AY4)
inactive: [7] -0.324 | [2] -0.093 | [3] 0.096 | [8] 0.041
